Reference: the supplement of paper PMC10849652
The other results are listed elsewhere or left out.

Amino acid sequences for entries named in this document (tags omitted). A change or cut given only in a name is not applied to a line headed by its entry.
UniProt Q9UHY8: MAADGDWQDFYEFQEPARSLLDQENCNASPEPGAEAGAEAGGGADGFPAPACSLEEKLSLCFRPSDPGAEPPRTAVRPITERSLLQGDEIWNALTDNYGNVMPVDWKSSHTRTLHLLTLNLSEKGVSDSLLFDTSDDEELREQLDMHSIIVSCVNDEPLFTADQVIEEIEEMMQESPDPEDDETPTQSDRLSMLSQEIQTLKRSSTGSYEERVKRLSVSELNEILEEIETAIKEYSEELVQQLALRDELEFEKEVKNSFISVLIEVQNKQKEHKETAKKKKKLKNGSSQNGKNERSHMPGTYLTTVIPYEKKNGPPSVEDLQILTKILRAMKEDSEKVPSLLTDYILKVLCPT
UniProt Q9NPI8: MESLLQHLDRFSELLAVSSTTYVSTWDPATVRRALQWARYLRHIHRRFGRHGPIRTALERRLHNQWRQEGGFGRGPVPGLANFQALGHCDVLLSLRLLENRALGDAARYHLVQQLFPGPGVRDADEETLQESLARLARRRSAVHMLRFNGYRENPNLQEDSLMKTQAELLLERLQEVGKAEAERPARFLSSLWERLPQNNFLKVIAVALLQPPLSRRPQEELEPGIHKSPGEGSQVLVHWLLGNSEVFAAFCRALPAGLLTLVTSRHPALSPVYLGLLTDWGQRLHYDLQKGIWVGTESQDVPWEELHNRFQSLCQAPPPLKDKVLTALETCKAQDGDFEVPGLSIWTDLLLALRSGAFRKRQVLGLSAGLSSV
UniProt O94868: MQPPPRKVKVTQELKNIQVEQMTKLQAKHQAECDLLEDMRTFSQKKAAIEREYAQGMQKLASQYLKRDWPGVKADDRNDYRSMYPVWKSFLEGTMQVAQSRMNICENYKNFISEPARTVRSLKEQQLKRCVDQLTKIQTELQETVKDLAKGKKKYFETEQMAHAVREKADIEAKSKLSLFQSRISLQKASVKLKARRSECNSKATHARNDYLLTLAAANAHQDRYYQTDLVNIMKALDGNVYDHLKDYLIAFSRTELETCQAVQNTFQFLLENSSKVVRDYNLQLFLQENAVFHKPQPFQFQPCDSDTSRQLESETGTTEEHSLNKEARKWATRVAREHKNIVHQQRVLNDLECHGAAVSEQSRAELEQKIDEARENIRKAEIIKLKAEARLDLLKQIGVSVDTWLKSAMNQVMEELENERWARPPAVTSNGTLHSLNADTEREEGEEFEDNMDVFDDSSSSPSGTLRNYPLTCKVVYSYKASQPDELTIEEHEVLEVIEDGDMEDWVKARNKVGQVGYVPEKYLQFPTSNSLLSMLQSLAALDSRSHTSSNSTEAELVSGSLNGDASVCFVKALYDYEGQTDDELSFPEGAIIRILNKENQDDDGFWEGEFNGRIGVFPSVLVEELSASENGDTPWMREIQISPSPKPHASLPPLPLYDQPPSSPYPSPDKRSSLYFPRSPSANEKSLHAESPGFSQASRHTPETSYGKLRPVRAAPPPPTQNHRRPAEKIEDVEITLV
UniProt P15407: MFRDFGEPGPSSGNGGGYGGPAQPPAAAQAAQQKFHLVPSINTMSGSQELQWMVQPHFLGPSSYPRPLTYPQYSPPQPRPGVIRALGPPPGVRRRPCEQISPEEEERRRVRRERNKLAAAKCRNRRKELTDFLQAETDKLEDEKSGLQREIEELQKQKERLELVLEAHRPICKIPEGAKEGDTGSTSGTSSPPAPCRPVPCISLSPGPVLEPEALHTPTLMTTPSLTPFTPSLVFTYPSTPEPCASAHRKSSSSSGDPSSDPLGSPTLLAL
UniProt Q6UN15: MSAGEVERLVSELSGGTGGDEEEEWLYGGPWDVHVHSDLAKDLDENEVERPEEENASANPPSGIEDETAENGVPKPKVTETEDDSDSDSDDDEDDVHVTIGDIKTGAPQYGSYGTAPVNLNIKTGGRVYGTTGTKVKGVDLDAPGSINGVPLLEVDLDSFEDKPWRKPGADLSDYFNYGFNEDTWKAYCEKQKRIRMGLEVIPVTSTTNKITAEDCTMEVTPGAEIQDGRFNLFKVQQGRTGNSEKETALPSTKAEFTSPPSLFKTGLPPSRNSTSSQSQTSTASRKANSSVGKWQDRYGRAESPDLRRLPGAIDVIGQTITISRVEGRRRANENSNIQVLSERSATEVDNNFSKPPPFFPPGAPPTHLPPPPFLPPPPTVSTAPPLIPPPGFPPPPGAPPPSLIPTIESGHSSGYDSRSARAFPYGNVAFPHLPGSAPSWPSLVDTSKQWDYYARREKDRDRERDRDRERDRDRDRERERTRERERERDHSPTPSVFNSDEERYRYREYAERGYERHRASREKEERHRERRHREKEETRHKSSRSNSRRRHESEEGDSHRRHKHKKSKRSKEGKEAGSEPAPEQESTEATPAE
UniProt Q9Y324: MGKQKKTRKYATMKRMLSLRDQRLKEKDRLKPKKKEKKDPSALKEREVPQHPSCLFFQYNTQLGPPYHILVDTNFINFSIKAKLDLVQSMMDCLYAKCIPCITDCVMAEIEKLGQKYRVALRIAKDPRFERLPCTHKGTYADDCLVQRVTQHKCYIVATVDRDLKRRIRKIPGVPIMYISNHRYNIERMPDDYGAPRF
UniProt P01100, whole entry, looked up: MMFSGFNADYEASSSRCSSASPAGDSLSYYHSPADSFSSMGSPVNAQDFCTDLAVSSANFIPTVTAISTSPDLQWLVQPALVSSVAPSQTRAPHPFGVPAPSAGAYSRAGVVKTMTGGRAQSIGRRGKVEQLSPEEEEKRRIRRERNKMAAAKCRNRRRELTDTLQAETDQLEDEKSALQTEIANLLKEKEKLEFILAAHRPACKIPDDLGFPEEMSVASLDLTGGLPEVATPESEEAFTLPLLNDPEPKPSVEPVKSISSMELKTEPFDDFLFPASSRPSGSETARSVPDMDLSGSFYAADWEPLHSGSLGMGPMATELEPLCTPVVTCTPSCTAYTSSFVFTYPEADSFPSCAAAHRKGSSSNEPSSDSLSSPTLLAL
UniProt Q4L180: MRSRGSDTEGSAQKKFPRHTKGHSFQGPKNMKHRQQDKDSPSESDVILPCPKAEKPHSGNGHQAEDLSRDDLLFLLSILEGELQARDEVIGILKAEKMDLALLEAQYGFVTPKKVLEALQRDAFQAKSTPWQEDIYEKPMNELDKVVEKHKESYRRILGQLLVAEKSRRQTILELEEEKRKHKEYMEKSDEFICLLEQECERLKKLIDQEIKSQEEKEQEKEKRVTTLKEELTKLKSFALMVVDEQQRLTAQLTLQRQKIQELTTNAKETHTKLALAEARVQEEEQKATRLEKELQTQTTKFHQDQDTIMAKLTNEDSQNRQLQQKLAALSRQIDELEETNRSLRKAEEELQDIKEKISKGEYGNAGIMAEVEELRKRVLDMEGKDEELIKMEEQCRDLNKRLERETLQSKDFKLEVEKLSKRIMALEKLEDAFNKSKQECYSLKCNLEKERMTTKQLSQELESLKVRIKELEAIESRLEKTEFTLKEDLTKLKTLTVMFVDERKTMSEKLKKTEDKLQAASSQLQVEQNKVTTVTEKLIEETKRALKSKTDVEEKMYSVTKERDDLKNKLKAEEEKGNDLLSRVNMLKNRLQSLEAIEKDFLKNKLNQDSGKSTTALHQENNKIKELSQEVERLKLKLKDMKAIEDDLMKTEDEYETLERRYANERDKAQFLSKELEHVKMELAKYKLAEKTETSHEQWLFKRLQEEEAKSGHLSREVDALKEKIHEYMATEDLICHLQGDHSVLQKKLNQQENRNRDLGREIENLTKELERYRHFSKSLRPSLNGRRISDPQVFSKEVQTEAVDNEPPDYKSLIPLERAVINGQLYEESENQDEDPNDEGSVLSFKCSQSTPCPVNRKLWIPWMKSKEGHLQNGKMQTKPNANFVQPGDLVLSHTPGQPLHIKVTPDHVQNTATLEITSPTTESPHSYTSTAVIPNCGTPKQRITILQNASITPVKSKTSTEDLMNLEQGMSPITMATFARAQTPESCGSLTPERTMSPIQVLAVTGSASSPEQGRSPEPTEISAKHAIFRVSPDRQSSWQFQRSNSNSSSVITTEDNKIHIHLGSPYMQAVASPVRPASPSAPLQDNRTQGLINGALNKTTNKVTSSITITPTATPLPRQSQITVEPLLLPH
UniProt P31994: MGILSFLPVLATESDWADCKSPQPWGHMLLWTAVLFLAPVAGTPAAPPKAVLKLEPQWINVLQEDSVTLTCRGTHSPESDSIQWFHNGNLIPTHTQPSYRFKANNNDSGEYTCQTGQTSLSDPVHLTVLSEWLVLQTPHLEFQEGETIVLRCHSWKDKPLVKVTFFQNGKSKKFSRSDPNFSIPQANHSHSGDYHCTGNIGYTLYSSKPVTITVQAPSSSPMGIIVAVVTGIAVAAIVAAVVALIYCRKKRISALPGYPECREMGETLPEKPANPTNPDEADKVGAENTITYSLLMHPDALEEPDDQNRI
UniProt Q8NFZ0: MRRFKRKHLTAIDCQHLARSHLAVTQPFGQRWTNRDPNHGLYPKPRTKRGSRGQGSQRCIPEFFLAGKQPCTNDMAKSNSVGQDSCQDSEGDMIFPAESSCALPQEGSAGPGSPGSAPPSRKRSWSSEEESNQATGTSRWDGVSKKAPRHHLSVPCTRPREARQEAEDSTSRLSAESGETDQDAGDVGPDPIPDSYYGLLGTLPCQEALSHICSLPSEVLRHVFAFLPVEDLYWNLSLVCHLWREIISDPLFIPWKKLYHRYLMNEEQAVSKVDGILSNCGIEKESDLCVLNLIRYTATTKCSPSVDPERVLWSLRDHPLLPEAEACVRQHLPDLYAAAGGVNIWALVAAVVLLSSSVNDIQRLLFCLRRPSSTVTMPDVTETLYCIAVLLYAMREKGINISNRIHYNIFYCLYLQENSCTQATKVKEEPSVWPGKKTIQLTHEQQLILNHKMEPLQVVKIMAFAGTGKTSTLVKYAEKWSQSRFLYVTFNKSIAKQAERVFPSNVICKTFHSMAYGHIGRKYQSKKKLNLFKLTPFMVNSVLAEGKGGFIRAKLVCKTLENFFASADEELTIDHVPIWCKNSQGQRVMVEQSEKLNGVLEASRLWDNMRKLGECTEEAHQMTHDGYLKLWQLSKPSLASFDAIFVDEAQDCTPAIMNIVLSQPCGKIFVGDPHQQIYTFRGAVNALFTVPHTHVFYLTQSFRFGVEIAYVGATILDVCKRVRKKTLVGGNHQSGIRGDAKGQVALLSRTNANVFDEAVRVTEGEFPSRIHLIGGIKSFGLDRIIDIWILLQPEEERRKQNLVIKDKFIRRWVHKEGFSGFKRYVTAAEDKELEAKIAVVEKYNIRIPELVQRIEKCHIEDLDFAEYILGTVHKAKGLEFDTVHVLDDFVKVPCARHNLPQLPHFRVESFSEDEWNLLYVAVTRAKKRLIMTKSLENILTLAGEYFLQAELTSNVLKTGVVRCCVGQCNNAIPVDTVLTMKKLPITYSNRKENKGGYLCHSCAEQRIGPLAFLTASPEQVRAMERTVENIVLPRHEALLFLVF
UniProt Q9P0K8: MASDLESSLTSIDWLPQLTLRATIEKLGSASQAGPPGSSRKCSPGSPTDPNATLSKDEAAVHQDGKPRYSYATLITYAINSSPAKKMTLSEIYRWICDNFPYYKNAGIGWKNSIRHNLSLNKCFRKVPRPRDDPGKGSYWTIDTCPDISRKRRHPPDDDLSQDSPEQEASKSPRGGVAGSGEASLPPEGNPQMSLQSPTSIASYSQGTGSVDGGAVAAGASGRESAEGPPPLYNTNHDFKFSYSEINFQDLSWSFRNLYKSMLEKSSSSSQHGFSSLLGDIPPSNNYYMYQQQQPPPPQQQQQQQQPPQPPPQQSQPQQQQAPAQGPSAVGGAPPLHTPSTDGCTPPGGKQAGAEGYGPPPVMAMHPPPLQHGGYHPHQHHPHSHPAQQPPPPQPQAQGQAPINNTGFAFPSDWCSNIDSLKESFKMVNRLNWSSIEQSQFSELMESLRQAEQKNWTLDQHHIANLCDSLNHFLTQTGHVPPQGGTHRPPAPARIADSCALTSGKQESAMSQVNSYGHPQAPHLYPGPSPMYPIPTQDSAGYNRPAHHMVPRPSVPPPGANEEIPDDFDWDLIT
UniProt Q9NVF7: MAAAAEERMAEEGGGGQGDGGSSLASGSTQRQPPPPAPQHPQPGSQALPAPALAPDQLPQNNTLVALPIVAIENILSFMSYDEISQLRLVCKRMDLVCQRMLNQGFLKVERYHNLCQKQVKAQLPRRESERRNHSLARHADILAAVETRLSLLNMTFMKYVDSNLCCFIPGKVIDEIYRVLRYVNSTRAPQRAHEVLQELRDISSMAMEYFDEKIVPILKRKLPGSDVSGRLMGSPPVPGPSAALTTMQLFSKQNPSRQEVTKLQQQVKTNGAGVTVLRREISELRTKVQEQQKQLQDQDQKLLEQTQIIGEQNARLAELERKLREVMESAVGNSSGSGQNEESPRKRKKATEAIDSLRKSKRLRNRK

Assays:
Experiment in all cases: log2 fold change, soluble protein after heating vs DMSO (PISA); higher = thermal stabilisation; K562 lysate, 10 uM; active = over 0.2 and 3.5 SD of the protein, either way, in both replicates (recomputed)
[1] = compound: CCn1cc(-c2ccnc3[nH]c(-c4cccc(CN(C)C)c4)cc23)c(-c2ccc(NC(=O)N(C)C)cc2)n1
Procedure, shortened: (§1)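 Values give the log-two fold change in thermal stability against solvent controls, from duplicates. Crude K562 extract at 1 mg/mL protein, made by dounce homogenisation in PBS pH 7.4 with 1 mM MgCl2, was treated with 10 μM compound for 30 min. After 3 min heating across 48°C-58°C, aliquots were pooled, adjusted to 0.5% NP-40 at 4°C and centrifuged at 21,000xg for 90 min. The supernatant was measured by TMTpro 16plex LC-MS/MS with channel sums equalised.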

[2] = compound: CN1CCC(CNc2ccc3ncc(-c4cccc(OC(F)(F)F)c4)n3n2)CC1
Procedure, shortened: as §1

alvocidib = compound: CN1CC[C@H](c2c(O)cc(O)c3c(=O)cc(-c4ccccc4Cl)oc23)[C@H](O)C1 [alvocidib]
Procedure, shortened: as §1

sotrastaurin = compound: CN1CCN(c2nc(C3=C(c4c[nH]c5ccccc45)C(=O)NC3=O)c3ccccc3n2)CC1 [sotrastaurin]
Procedure, shortened: as §1

[3] = compound: CCCS(=O)(=O)Nc1ccc(F)c(C(=O)c2c[nH]c3ncc(Cl)cc23)c1F
Procedure, shortened: as §1

volasertib = compound: CC[C@@H]1C(=O)N(C)c2cnc(Nc3ccc(C(=O)N[C@H]4CC[C@H](N5CCN(CC6CC6)CC5)CC4)cc3OC)nc2N1C(C)C [volasertib]
Procedure, shortened: as §1

saracatinib = compound: CN1CCN(CCOc2cc(OC3CCOCC3)c3c(Nc4c(Cl)ccc5c4OCO5)ncnc3c2)CC1 [saracatinib]
Procedure, shortened: as §1

[4] = compound: CNc1nc(-c2ccc3c(N)n[nH]c3c2)cc(N2C[C@@H](C(=O)NC3CCCCC3)CC[C@H]2C)n1
Procedure, shortened: as §1

alisertib = compound: COc1cc(Nc2ncc3c(n2)-c2ccc(Cl)cc2C(c2c(F)cccc2OC)=NC3)ccc1C(=O)O [alisertib]
Procedure, shortened: as §1

[5] = compound: COc1cc2nc(-c3cc(F)ccc3O)nc(N[C@@H]3CNC[C@H]3C(C)(C)O)c2cc1OC
Procedure, shortened: as §1

gefitinib = compound: COc1cc2ncnc(Nc3ccc(F)c(Cl)c3)c2cc1OCCCN1CCOCC1 [gefitinib]
Procedure, shortened: as §1

[6] = compound: CC[C@@H]1C(=O)N(C)c2cnc(Nc3ccc(C(=O)NC4CCN(C)CC4)cc3OC)nc2N1C1CCCC1
Procedure, shortened: as §1

[7] = compound: CCn1c(C(=O)N(C2CC2)C2CC2)cc2c3c(ncn3C)c(Nc3cc(C)n(C)n3)nc21
Procedure, shortened: as §1

Tubastatin A = compound: CN1CCc2c(c3ccccc3n2Cc2ccc(C(=O)NO)cc2)C1 [Tubastatin A]
Procedure, shortened: as §1

[8] = compound: CNC(=O)C1=CC=CC=C1NC2=NC(=NC=C2Cl)NC3=C(C=C(C=C3)N4CCOCC4)OC
Procedure, shortened: as §1

encorafenib = compound: COC(=O)N[C@@H](C)CNc1nccc(-c2cn(C(C)C)nc2-c2cc(Cl)cc(NS(C)(=O)=O)c2F)n1 [encorafenib]
Procedure, shortened: as §1

[9] = compound: COC(=O)[C@H](CCSC)NC(=O)C1=C(C=C(C=C1)NC[C@H](CS)N)C2=CC=CC=C2
Procedure, shortened: as §1

barasertib = compound: CCN(CCCOc1ccc2c(Nc3cc(CC(=O)Nc4cccc(F)c4)[nH]n3)ncnc2c1)CCOP(=O)(O)O [barasertib]
Procedure, shortened: as §1

Measured: log2 fold change

FEZ2 (UniProt Q9UHY8)
inactive: [1] 0.096 | [2] 0.121 | alvocidib -0.007

FANCF (UniProt Q9NPI8)
inactive: [1] 0.298 | [2] -0.087 | sotrastaurin 0.008 | alvocidib -0.007

FCHSD2 (UniProt O94868)
inactive: [3] 0.139 | volasertib 0.008 | saracatinib 0.104 | [4] 0.045 | alisertib 0.114 | [5] -0.032 | gefitinib 0.071

FDPS, A0A087WVN4
inactive: [3] -0.013 | volasertib -0.011 | [5] 0.039

FEM1C (UniProt Q96JP0)
inactive: saracatinib 0.095 | [4] 0.052

FOSL1 (UniProt P15407)
inactive: [3] -0.058 | volasertib 0.06 | [1] -0.082 | [2] 0.102 | saracatinib -0.012 | sotrastaurin 0.061 | alvocidib -0.03 | [4] -0.2 | alisertib -0.233 | [5] 0.215 | gefitinib -0.01

FER isoform 3 (UniProt P16591)
inactive: [3] 0.089 | volasertib -0.07 | [1] -0.016 | [2] 0.164 | sotrastaurin 0.329 | alvocidib 0.179 | [5] -0.11

FIP1L1 isoform 3 (UniProt Q6UN15)
inactive: [3] -0.005 | [6] 0.117 | volasertib 0.246 | [7] -0.111 | sotrastaurin 0.005 | Tubastatin A 0.024 | [8] -0.054 | encorafenib -0.128 | [9] -0.224 | alisertib 0.109 | [5] 0.2 | gefitinib -0.062

FANCC (UniProt Q00597)
inactive: [3] 0.038 | volasertib 0.008 | [7] 0.042 | sotrastaurin 0.029 | Tubastatin A -0.141 | [8] -0.157 | [5] 0.06

FCF1 (UniProt Q9Y324)
inactive: [1] -0.099 | [2] 0.174 | saracatinib -0.161 | sotrastaurin 0.149 | alvocidib 0.019 | [4] -0.174 | alisertib -0.266 | gefitinib -0.236

FOS (UniProt P01100)
inactive: [6] 0.132 | [1] 0 | [2] 0.166 | alvocidib -0.102 | encorafenib -0.013 | [9] 0.207

Copied from above (2 entries):
FANCF (UniProt Q9NPI8)
inactive: [1] 0.298 | [2] -0.087 | sotrastaurin 0.008 | alvocidib -0.007

FCHSD2 (UniProt O94868)
inactive: [3] 0.139 | volasertib 0.008 | saracatinib 0.104 | [4] 0.045 | alisertib 0.114 | [5] -0.032 | gefitinib 0.071

Next part

FILIP1L (UniProt Q4L180)
inactive: [3] -0.114 | [6] -0.081 | volasertib 0.105 | [7] -0.141 | saracatinib -0.04 | Tubastatin A 0.024 | [4] 0.064 | encorafenib 0.022 | [9] -0.216 | [5] 0.044

FLYWCH1 isoform 3 (UniProt Q4VC44)
inactive: [3] 0.009 | volasertib 0.116 | [7] 0.128 | saracatinib 0.207 | sotrastaurin 0.141 | Tubastatin A 0.135 | [4] -0.039 | alisertib -0.036 | [5] -0.25 | gefitinib 0.019

FCGR2B (UniProt P31994)
inactive: [6] 0.224 | [7] 0.121 | sotrastaurin -0.02 | Tubastatin A 0.171 | encorafenib 0.087 | [9] -0.145

FHL1 isoform 4 (UniProt Q13642)
inactive: [1] 0.57 | [2] 0.065 | alvocidib -0.014

FMNL3 (UniProt Q8IVF7)
inactive: [3] 0.155 | barasertib 0.034 | volasertib 0.102 | [5] -0.071

FASN, A0A0U1RRG3
inactive: [3] 0.111 | volasertib -0.199 | [5] 0

FAT1 (UniProt Q14517)
inactive: [3] 0.022 | [6] 0.32 | volasertib 0.025 | [7] -0.344 | [1] 0.001 | [2] -0.036 | sotrastaurin -0.333 | alvocidib -0.14 | Tubastatin A 0.18 | [8] 0 | encorafenib 0.029 | [9] 0.047 | [5] 0.094

FKBP10 (UniProt Q96AY3)
inactive: [6] -0.037 | [7] 0.081 | [1] -0.043 | [2] -0.009 | saracatinib -0.03 | alvocidib 0.023 | Tubastatin A -0.052 | [4] 0.131 | encorafenib 0.044 | [9] 0.013 | alisertib 0.065 | gefitinib 0.182

FASTKD3 (UniProt Q14CZ7)
inactive: [3] 0.301 | [6] -0.178 | volasertib -0.354 | encorafenib 0.175 | [9] -0.001 | alisertib 0.045 | [5] -0.172 | gefitinib 0.067

FBH1 isoform 2 (UniProt Q8NFZ0)
inactive: barasertib 0.016 | [1] 0.031 | [2] -0.035 | sotrastaurin -0.029 | alvocidib 0.016 | alisertib 0.132 | gefitinib -0.071

FOXJ2 (UniProt Q9P0K8)
inactive: barasertib -0.049 | [6] -0.149 | [7] 0.1 | [1] -0.062 | [2] -0.071 | saracatinib -0.101 | alvocidib 0.006 | Tubastatin A -0.114 | [8] 0.021 | [4] 0.053 | encorafenib -0.081 | [9] 0.022 | alisertib -0.308 | gefitinib 0.057

FAXDC2 (UniProt Q96IV6)
inactive: [3] 0.078 | [6] 0.114 | volasertib 0.006 | [1] 0.056 | [2] 0.204 | saracatinib -0.042 | sotrastaurin -0.18 | alvocidib -0.242 | [8] 0.199 | [4] 0.131 | encorafenib -0.217 | [9] -0.206 | [5] 0.029

FMNL2 isoform 3 (UniProt Q96PY5)
inactive: [3] 0.022 | volasertib -0.013 | [7] -0.103 | saracatinib 0.04 | sotrastaurin 0.08 | Tubastatin A 0.108 | [8] 0.011 | [4] 0.044 | alisertib 0.073 | [5] 0.119 | gefitinib 0.241

FBXO28 (UniProt Q9NVF7)
inactive: [3] -0.09 | volasertib 0.012 | [7] 0.039 | Tubastatin A -0.005 | [5] -0.043

FITM2 (UniProt Q8N6M3)
inactive: [3] -0.042 | barasertib 0.059 | volasertib -0.039 | alisertib 0.029 | [5] 0.044 | gefitinib -0.207

FNDC3A (UniProt Q9Y2H6)
inactive: [7] 0.044 | [1] -0.451 | [2] 0.138 | sotrastaurin -0.113 | alvocidib -0.017 | Tubastatin A -0.237 | [8] 0.014 | alisertib -0.141 | gefitinib -0.214
